# According to the supplement of paper PMC5949888:
# ± gives the standard deviation of the averaged measurements. Most values lie at the floor of the assay. Slopes are relative: functional sequences can read slightly below zero.
# Test system: Saccharomyces cerevisiae PS128 hsf1 delta, HSF1(1-493) fusion
# Test: growth estimate (transactivation domain function in HSF1 fusion, heat-shock survival) (a.u. (slope of normalised read count over time)); higher = stronger growth at 37°C, i.e. more transactivation activity
# Conditions: library: random library
row,Substance,growth estimate
1,LEERLNGSRQ,< -0.25
2,LEEVALRYGISVVRVAGGRN,< -0.25
3,LEFFLSLLGTRYLPYYVRPP,< -0.25
4,LEFQRFRAGR,< -0.25
5,LEG,< -0.25
6,LEGLI,< -0.25
7,LEGLQRY,< -0.25
8,LEGLYRNTPVSTLSAPIRSA,< -0.25
9,LEGRQCNQIFYAW,< -0.25
10,LEHYRGGWNSSV,< -0.25
11,LEIFVKFGCGAYEAGLDVGS,< -0.25
12,LEKSTSRFACDERCFR,< -0.25
13,LEPRDAGYNLPHLNTPVGFH,< -0.25
14,LEQKYRNVRAVLREL,< -0.25
15,LEREEQSMCSDTSL,< -0.25
16,LERG,< -0.25
17,LERIFENRWPLIARCAKRGG,-0.243
18,LERLVLLEGHAP,< -0.25
19,LERPSY,< -0.25
20,LERVS,< -0.25
21,LESESNIGLLSVRRLVKEVM,< -0.25
22,LESGL,< -0.25
23,LESRPSGSPSLVAVMPPLKV,< -0.25
24,LESTERFRCLTRLAISVERR,< -0.25
25,LESYS,< -0.25

# Retrieved one by one from above, 4 records:
row,Substance,growth estimate
3,LEFFLSLLGTRYLPYYVRPP,< -0.25
9,LEGRQCNQIFYAW,< -0.25
18,LERLVLLEGHAP,< -0.25
6,LEGLI,< -0.25

# (list continues)

row,Substance,growth estimate
1,LET,< -0.25
2,LETKKR,< -0.25
3,LETSEMLLNKRRDYTPGVSA,< -0.25
4,LEV,-0.23 ± 0.028
5,LEVAQ,< -0.25
6,LEVGPAPASGLMGSYVPGAD,< -0.25
7,LEVLPRVSSKDRESSYTGA,< -0.25
8,LEVSTST,< -0.25
9,LEVTKHNLARIERMRHCFVG,< -0.25
10,LEVVTAFGKGGYIQAY,< -0.25
11,LEWGANMAHAVLDLVDVNHY,< -0.25
12,LEYCRPLGMMGSRLWALRGQ,< -0.25
13,LEYSFS,< -0.25
14,LEYVQYRVL,< -0.25
15,LFAAGKPVCGVGVGRSLRFL,< -0.25
16,LFASCARGP,< -0.25
17,LFCARMVGPPQTVS,< -0.25
18,LFCQRQRTPTVQF,< -0.25
19,LFFFNKQLLPSKFAFVKWEC,< -0.25
20,LFFVKFSKTAVLGQPCTIVR,< -0.25
21,LFGGPPGGVGELRPLVLSTL,< -0.25
22,LFGRKADRLQRWMRSTGTRE,< -0.25
23,LFGWMRNHD,< -0.25
24,LFHCFETMLVILWS,< -0.25
25,LFKKTYILVARNQGVVPKGP,< -0.25

row,Substance,growth estimate
1,LFLAP,< -0.25
2,LFLESGKPESVPAAPSGLAR,< -0.25
3,LFLLFYTFGSLLCRLPSAI,< -0.25
4,LFLWNLLCYEVSGDRCASVF,-0.248
5,LFNSLLEYRA,< -0.25
6,LFP,< -0.25
7,LFPMG,< -0.25
8,LFQ,-0.229
9,LFRADLIIRQSLEAVKDRL,< -0.25
10,LFRGPRALSRVKGNVYRAVV,< -0.25
11,LFRHTAYFS,< -0.25
12,LFRITALGRRVYALGNQLSL,< -0.25
13,LFSGDLKNGVRPADIYCVRP,< -0.25
14,LFSQCYGRTKTGPVPARLG,< -0.25
15,LFSQTFHGSLL,< -0.25
16,LFSWTTR,< -0.25
17,LFTTGRVRASSDRTAVIDAR,< -0.25
18,LFVGKVGLNIVVSTGPL,< -0.25
19,LFVQEPGVKRNKV,< -0.25
20,LFVRGNAVTPDRADRMPAVA,< -0.25
21,LGAMDGVRPSACIEKCFPTR,< -0.25
22,LGANDNWVGQTLEMHPIVNG,< -0.25
23,LGAS,< -0.25
24,LGC,< -0.25
25,LGCIV,< -0.25

# Copied from the list:
# Under growth estimate, LFLAP has the entry < -0.25
# Under growth estimate, LFLWNLLCYEVSGDRCASVF has the entry -0.248

# Following part

row,Substance,growth estimate
1,LGCLDLARARQVVTPRVVYL,< -0.25
2,LGCRETVPAQTRTLASPVTE,< -0.25
3,LGCSER,< -0.25
4,LGCYSVDSESKCLSRRHPLA,< -0.25
5,LGDKRILLRWCARADEKNRE,< -0.25
6,LGDLLTQRGNNETKWPVGTE,-0.185
7,LGDSDFCQGCHYWSGGSSRQ,< -0.25
8,LGEGRPTVGATRVLPHI,< -0.25
9,LGERRIVVCETSLRHN,< -0.25
10,LGFRKFLYCMGHSW,< -0.25
11,LGFRLRSVVRVRKLPRQGCQ,< -0.25
12,LGFTIIRIFRSTSVGLRRDA,< -0.25
13,LGGTVLYGSVRRMVIPARRI,< -0.25
14,LGHGVEVSVSVGGIWTSSIY,< -0.25
15,LGIGRVEVTTYCSPRTSCSK,< -0.25
16,LGILGRGSSVPMWHLEGYSR,< -0.25
17,LGIQH,< -0.25
18,LGIQWGYLLRGD,< -0.25
19,LGIRT,< -0.25
20,LGIVCRSIGGRVTKLASVGS,< -0.25
21,LGIVSYARANEKACLSQVNM,< -0.25
22,LGIYLSA,< -0.25
23,LGKCRSSFHLRVRGTSGFRA,< -0.25
24,LGKDLPRVTAHGTAAPDT,< -0.25
25,LGKLMEQSTASG,< -0.25

# Not a retest: entries from further up.
row,Substance,growth estimate
2,LGCRETVPAQTRTLASPVTE,< -0.25
3,LGCSER,< -0.25
4,LGCYSVDSESKCLSRRHPLA,< -0.25

# (continued)

row,Substance,growth estimate
1,LGKRP,< -0.25
2,LGKRVIGMCELFARVSTCGH,-0.246
3,LGKWTSHQIY,< -0.25
4,LGLD,< -0.25
5,LGLHKSSSVEDKIVLRKCTS,< -0.25
6,LGLIQVGTSLAKTLCG,< -0.25
7,LGLPACHLKTSFIESVRYPT,< -0.25
8,LGLRCGKTDNEFQCYYGDFR,< -0.25
9,LGLRGATTRVPSVFVGAVSK,< -0.25
10,LGLSFSRKAVFIPLCDKRYQ,< -0.25
11,LGLTPVTVRVATRSNNSQSH,-0.245
12,LGLTSERLSSSRLGSDRPFL,< -0.25
13,LGLYQVDHSIEPAVPPHK,< -0.25
14,LGMGYASASSSRD,< -0.25
15,LGNAGVLRDVK,< -0.25
16,LGNM,< -0.25
17,LGNTSPESCRSQRSPERGEH,< -0.25
18,LGPAANRRQHLGSKENKIKA,-0.246
19,LGPGAARTERGVFKMAIGV,< -0.25
20,LGPIV,< -0.25
21,LGPLSEQFRG,< -0.25
22,LGPPKRPA,< -0.25
23,LGQARKRLVAVVSSISGRRQ,< -0.25
24,LGQGGCKNFGLRFRTSVTKP,< -0.25
25,LGQTT,< -0.25

row,Substance,growth estimate
1,LGRANSSGVF,< -0.25
2,LGRCGFRVRDEPLVRLDLKD,< -0.25
3,LGRCLCFSTCGKHTGFFHK,< -0.25
4,LGRECAG,< -0.25
5,LGREVSYVVAKGSILLEVAS,< -0.25
6,LGRLRSHFE,< -0.25
7,LGRPGSYVARGRRTYVLDVL,-0.243
8,LGRPKSGHARERELP,< -0.25
9,LGRRIATIWGQNTIRP,< -0.25
10,LGRVDMGGSRNLFS,< -0.25
11,LGS,< -0.25
12,LGSEI,-0.246
13,LGSGRALA,< -0.25
14,LGSGSPGKATRQEIIVAPPR,< -0.25
15,LGSIRPSRYLSVAGSALGHV,< -0.25
16,LGSKPVIRKRYHQRCVPLLG,< -0.25
17,LGSLELASLAL,< -0.25
18,LGSRLDLYHGRGKRSDLPLV,< -0.25
19,LGSTKADGSYTEVCVTSRWS,< -0.25
20,LGSTSGHKRQGSDASTEFMR,< -0.25
21,LGSYERTGVLLKTRVVHKRV,< -0.25
22,LGTAPTVDVIFVTTPNQPVT,< -0.25
23,LGTRRINRSRRTLSAPSDES,< -0.25
24,LGTSLARCLCVCMERKEKGP,< -0.25
25,LGTSLVIHWGGLPDKVRRYA,< -0.25

row,Substance,growth estimate
1,LGTYVVCTL,< -0.25
2,LGVCSSERRKTGAQRLLPAP,< -0.25
3,LGVDVHTKVGLSRESGRLMR,< -0.25
4,LGVLGLKR,< -0.25
5,LGVRLPVLRTYFERFDKTGA,< -0.25
6,LGVS,-0.245
7,LGVSLRLLSAGWVHCLANRP,< -0.25
8,LGVSPMR,< -0.25
9,LGVSSKRRTSVTDLTLIEEL,< -0.25
10,LGVVKTWAGYLSGSRRFRSD,< -0.25
11,LGVVVIGHIGIVLYIGGPHR,< -0.25
12,LGWRVEVGDIT,< -0.25
13,LGYAL,< -0.25
14,LGYAQDVCPSPNVRYASLR,< -0.25
15,LGYKI,< -0.25
16,LGYP,< -0.25
17,LHCHHTQWFTLSKGQIDVHH,< -0.25
18,LHDVLIRPLWAPIL,< -0.25
19,LHDVRAWLGRVRVRCVG,< -0.25
20,LHEPVRAGSP,< -0.25
21,LHERGATHGG,< -0.25
22,LHFAQGFQVDCVEGDLNVRA,< -0.25
23,LHHPVGASVHGPYVPGVVLH,< -0.25
24,LHKISSWHGCVTGAARSLRE,< -0.25
25,LHLICRRD,< -0.25

row,Substance,growth estimate
1,LHLRILSAWDYSRLLRSEVP,< -0.25
2,LHPSLPPV,< -0.25
3,LHRRLDCRLAAGHRSAGW,< -0.25
4,LHRTFCNSTVTTSIAEAKDS,< -0.25
5,LHSFRTSQLPET,< -0.25
6,LHSHTSSTSLEL,< -0.25
7,LHSSRNQAKCRR,< -0.25
8,LHT,< -0.25
9,LHTVSSERPFPPCYT,< -0.25
10,LIARPALITHR,< -0.25
11,LIARQGKLLNLTG,< -0.25
12,LIAYEVNCIRELKSVGGHGL,< -0.25
13,LICSLTLISEG,< -0.25
14,LIESAV,< -0.25
15,LIEVECLVICSSTCWLGRYC,< -0.25
16,LIFVPGRIVSPRITHGIPFY,< -0.25
17,LIGDFML,< -0.25
18,LIHEHSEVHQSVTGHVVWPN,< -0.25
19,LIHIGVARTLTHYHASSDKS,< -0.25
20,LILFRIQKARS,< -0.25
21,LILQQPTVILISAFGLVRYH,< -0.25
22,LILRNG,< -0.25
23,LILSVA,< -0.25
24,LILWSGGKPLKGFRDKRTRS,< -0.25
25,LIMRTRVG,< -0.25
